# According to the supplement of paper PMC8728848:
# This is one part of the list.
# B1: Drgal1 (Danio rerio) (protein)
# chain: MAGVLIQNMSFKVGQTLTITGVPKPDSTNFAINIGHSPEDIALHMNPRFDAHGDQCTIVCNSFQSGSWCEEHRDDNFPFIQDKEFQIKITFTNEEFLVTLPDGSEIHFPNRQGSEKYKYMYFEGEVRIQGVEIK
# Key:
# Experiment in all cases: glycan array binding signal (z-score within array); higher = stronger binding
# Settings in all cases: glycan notation: IUPAC condensed, linker removed
# [1] = biological target: GlcNAc(b1-3)Gal(b1-4)GlcNAc(b1-3)Gal(b1-4)GlcNAc(b1-3)Gal(b1-4)GlcNAc(b1-3)Gal(b1-4)GlcNAc(b1-2)[GlcNAc(b1-3)Gal(b1-4)GlcNAc(b1-3)Gal(b1-4)GlcNAc(b1-3)Gal(b1-4)GlcNAc(b1-3)Gal(b1-4)GlcNAc(b1-6)]Man(a1-6)[GlcNAc(b1-3)Gal(b1-4)GlcNAc(b1-3)Gal(b1-4)GlcNAc(b1-3)Gal(b1-4)GlcNAc(b1-3)Gal(b1-4)GlcNAc(b1-2)Man(a1-3)]Man(b1-4)GlcNAc(b1-4)[Fuc(a1-6)]GlcNAc
# How it was run: (§1)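 Glycan array binding is given as a within-array Z-score, which can be read as non-binding when negative. The arrays, 3228 of them, came from the Consortium for Functional Glycomics database and were retained only where the protein sequence was available. Z-scores were averaged across arrays of the same protein sequence at different concentrations or buffers and across linkers.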
# [2] = biological target: GlcNAc(b1-3)Gal(b1-4)GlcNAc(b1-3)Gal(b1-4)GlcNAc(b1-3)GalNAc
# How it was run: as §1
# [3] = biological target: GlcNAc(b1-3)Gal(b1-4)GlcNAc(b1-3)GalNAc
# How it was run: as §1
# [4] = biological target: GlcNAc(b1-3)Gal(b1-4)GlcNAc(b1-3)[GlcNAc(b1-3)Gal(b1-4)GlcNAc(b1-3)]GalNAc
# How it was run: as §1
# [5] = biological target: GlcNAc(b1-3)Gal(b1-4)GlcNAc(b1-6)[Gal(b1-3)]GalNAc
# How it was run: as §1
# [6] = biological target: GlcNAc(b1-3)Gal(b1-4)GlcNAc(b1-6)[GlcNAc(b1-3)Gal(b1-3)]GalNAc
# How it was run: as §1
# [7] = biological target: GlcNAc(b1-3)Gal(b1-4)GlcNAc(b1-6)[GlcNAc(b1-3)]Gal(b1-4)GlcNAc
# How it was run: as §1
# GlcNAc(b1-3)GalNAc = biological target: GlcNAc(b1-3)GalNAc
# How it was run: as §1
# GlcNAc(b1-3)Man = biological target: GlcNAc(b1-3)Man
# How it was run: as §1
# [8] = biological target: GlcNAc(b1-3)[GlcNAc(b1-4)][GlcNAc(b1-6)]GlcNAc
# How it was run: as §1
# [9] = biological target: GlcNAc(b1-3)[GlcNAc(b1-6)]Gal(b1-4)GlcNAc
# How it was run: as §1
# [10] = biological target: GlcNAc(b1-3)[GlcNAc(b1-6)]GalNAc
# How it was run: as §1
# [11] = biological target: GlcNAc(b1-4)Gal(b1-4)GlcNAc
# How it was run: as §1
# GlcNAc(b1-4)GlcNAc = biological target: GlcNAc(b1-4)GlcNAc
# How it was run: as §1
# [12] = biological target: GlcNAc(b1-4)GlcNAc(b1-4)GlcNAc
# How it was run: as §1
# [13] = biological target: GlcNAc(b1-4)GlcNAc(b1-4)GlcNAc(b1-4)GlcNAc(b1-4)GlcNAc
# How it was run: as §1
# [14] = biological target: GlcNAc(b1-4)GlcNAc(b1-4)GlcNAc(b1-4)GlcNAc(b1-4)GlcNAc(b1-4)GlcNAc
# How it was run: as §1
# [15] = biological target: GlcNAc(b1-4)[GlcNAc(b1-6)]GalNAc
# How it was run: as §1
# [16] = biological target: GlcNAc(b1-6)Gal(b1-4)GlcNAc
# How it was run: as §1
# GlcNAc(b1-6)GalNAc = biological target: GlcNAc(b1-6)GalNAc
# How it was run: as §1
# [17] = biological target: GlcNAc6S(b1-3)Gal(b1-4)GlcNAc
# How it was run: as §1
# Kdn(a2-3)Gal(b1-3)GalNAc = biological target: Kdn(a2-3)Gal(b1-3)GalNAc
# How it was run: as §1
# Kdn(a2-3)Gal(b1-3)GlcNAc = biological target: Kdn(a2-3)Gal(b1-3)GlcNAc
# How it was run: as §1
# Kdn(a2-3)Gal(b1-4)Glc = biological target: Kdn(a2-3)Gal(b1-4)Glc
# How it was run: as §1
# Kdn(a2-3)Gal(b1-4)GlcNAc = biological target: Kdn(a2-3)Gal(b1-4)GlcNAc
# How it was run: as §1
# [18] = biological target: Kdn(a2-3)Gal(b1-4)[Fuc(a1-3)]GlcNAc
# How it was run: as §1
# Kdn(a2-6)Gal(b1-4)GlcNAc = biological target: Kdn(a2-6)Gal(b1-4)GlcNAc
# How it was run: as §1
# [19] = biological target: Man(a1-2)Man(a1-2)Man(a1-3)Man
# How it was run: as §1
# [20] = biological target: Man(a1-2)Man(a1-2)Man(a1-6)[Man(a1-3)]Man
# How it was run: as §1
# Man(a1-2)Man(a1-3)Man = biological target: Man(a1-2)Man(a1-3)Man
# How it was run: as §1
# [21] = biological target: Man(a1-2)Man(a1-3)[Man(a1-2)Man(a1-6)]Man
# How it was run: as §1
# [22] = biological target: Man(a1-2)Man(a1-3)[Man(a1-2)Man(a1-6)]Man(a1-6)[Man(a1-2)Man(a1-2)Man(a1-3)]Man
# How it was run: as §1
# [23] = biological target: Man(a1-2)Man(a1-3)[Man(a1-2)Man(a1-6)]Man(a1-6)[Man(a1-2)Man(a1-2)Man(a1-3)]Man(b1-4)GlcNAc(b1-4)GlcNAc
# How it was run: as §1
# [24] = biological target: Man(a1-2)Man(a1-3)[Man(a1-6)]Man(a1-6)[Man(a1-2)Man(a1-3)]Man(b1-4)GlcNAc(b1-4)GlcNAc
# How it was run: as §1
# [25] = biological target: Man(a1-2)Man(a1-6)[Man(a1-3)]Man(a1-6)[Man(a1-2)Man(a1-2)Man(a1-3)]Man
# How it was run: as §1
# [26] = biological target: Man(a1-2)Man(a1-6)[Man(a1-3)]Man(a1-6)[Man(a1-2)Man(a1-2)Man(a1-3)]Man(b1-4)GlcNAc(b1-4)GlcNAc
# How it was run: as §1
# Man(a1-3)[Man(a1-6)]Man = biological target: Man(a1-3)[Man(a1-6)]Man
# How it was run: as §1
# [27] = biological target: Man(a1-3)[Man(a1-6)]Man(a1-6)[Man(a1-2)Man(a1-3)]Man(b1-4)GlcNAc(b1-4)GlcNAc
# How it was run: as §1
# [28] = biological target: Man(a1-3)[Man(a1-6)]Man(a1-6)[Man(a1-3)]Man
# How it was run: as §1
# [29] = biological target: Man(a1-3)[Man(a1-6)]Man(a1-6)[Man(a1-3)]Man(b1-4)GlcNAc(b1-4)GlcNAc
# How it was run: as §1
# [30] = biological target: Man(a1-3)[Man(a1-6)]Man(b1-4)GlcNAc(b1-4)GlcNAc
# How it was run: as §1
# [31] = biological target: Man(a1-3)[Man(a1-6)]Man(b1-4)GlcNAc(b1-4)[Fuc(a1-6)]GlcNAc
# How it was run: as §1
# Man(a1-6)Man = biological target: Man(a1-6)Man
# How it was run: as §1
# Man(b1-4)GlcNAc = biological target: Man(b1-4)GlcNAc
# How it was run: as §1
# MurNAc(b1-4)GlcNAc = biological target: MurNAc(b1-4)GlcNAc
# How it was run: as §1
binder,measurement,setting,value
B1,glycan array binding signal (z-score),[1],1.89
same,glycan array binding signal (z-score),[2],-0.106
same,glycan array binding signal (z-score),[3],0.021
same,glycan array binding signal (z-score),[4],0.223
same,glycan array binding signal (z-score),[5],-0.519
same,glycan array binding signal (z-score),[6],-0.558
same,glycan array binding signal (z-score),[7],-0.239
same,glycan array binding signal (z-score),GlcNAc(b1-3)GalNAc,-0.42
same,glycan array binding signal (z-score),GlcNAc(b1-3)Man,-0.309
same,glycan array binding signal (z-score),[8],-0.321
same,glycan array binding signal (z-score),[9],-0.445
same,glycan array binding signal (z-score),[10],-0.32
same,glycan array binding signal (z-score),[11],0.178
same,glycan array binding signal (z-score),GlcNAc(b1-4)GlcNAc,0.013
same,glycan array binding signal (z-score),[12],-0.352
same,glycan array binding signal (z-score),[13],-0.191
same,glycan array binding signal (z-score),[14],-0.903
same,glycan array binding signal (z-score),[15],-0.352
same,glycan array binding signal (z-score),[16],0.599
same,glycan array binding signal (z-score),GlcNAc(b1-6)GalNAc,-0.014
same,glycan array binding signal (z-score),[17],-0.074
same,glycan array binding signal (z-score),Kdn(a2-3)Gal(b1-3)GalNAc,-0.094
same,glycan array binding signal (z-score),Kdn(a2-3)Gal(b1-3)GlcNAc,0.176
same,glycan array binding signal (z-score),Kdn(a2-3)Gal(b1-4)Glc,-0.466
same,glycan array binding signal (z-score),Kdn(a2-3)Gal(b1-4)GlcNAc,-0.245
same,glycan array binding signal (z-score),[18],0.062
same,glycan array binding signal (z-score),Kdn(a2-6)Gal(b1-4)GlcNAc,-0.406
same,glycan array binding signal (z-score),[19],0.145
same,glycan array binding signal (z-score),[20],-0.589
same,glycan array binding signal (z-score),Man(a1-2)Man(a1-3)Man,-0.564
same,glycan array binding signal (z-score),[21],-0.092
same,glycan array binding signal (z-score),[22],-0.28
same,glycan array binding signal (z-score),[23],-0.507
same,glycan array binding signal (z-score),[24],-1.37
same,glycan array binding signal (z-score),[25],-0.535
same,glycan array binding signal (z-score),[26],-0.178
same,glycan array binding signal (z-score),Man(a1-3)[Man(a1-6)]Man,0.311
same,glycan array binding signal (z-score),[27],-0.075
same,glycan array binding signal (z-score),[28],0.529
same,glycan array binding signal (z-score),[29],-0.199
same,glycan array binding signal (z-score),[30],-0.585
same,glycan array binding signal (z-score),[31],-0.037
same,glycan array binding signal (z-score),Man(a1-6)Man,1.43
same,glycan array binding signal (z-score),Man(b1-4)GlcNAc,0.616
same,glycan array binding signal (z-score),MurNAc(b1-4)GlcNAc,-0.654

# Shown tab-delimited: part of the list above
binder	measurement	setting	value
B1	glycan array binding signal (z-score)	[2]	-0.106
same	glycan array binding signal (z-score)	[5]	-0.519
same	glycan array binding signal (z-score)	[6]	-0.558
same	glycan array binding signal (z-score)	[8]	-0.321
same	glycan array binding signal (z-score)	[9]	-0.445
same	glycan array binding signal (z-score)	[10]	-0.32
same	glycan array binding signal (z-score)	GlcNAc(b1-4)GlcNAc	0.013
same	glycan array binding signal (z-score)	[13]	-0.191
same	glycan array binding signal (z-score)	[17]	-0.074
same	glycan array binding signal (z-score)	[20]	-0.589
same	glycan array binding signal (z-score)	[21]	-0.092
same	glycan array binding signal (z-score)	[27]	-0.075
same	glycan array binding signal (z-score)	[29]	-0.199
same	glycan array binding signal (z-score)	[31]	-0.037
